These are yes or no findings as the source states them, for the method shown. Binding seen in cells or lysates may run through a third protein. These calls come from enrichment with a bait or labelling near it, and not all partners need be listed.
Biological target: TAP-tagged Hat1p (S. cerevisiae) (UniProt Q12341)
Assay: affinity purification with mass spectrometry; TAP-tagged bait purified from soluble extracts of large-scale log-phase yeast cultures; purified preparations analysed by gel-free tandem mass spectrometry and by gel electrophoresis with MALDI-TOF; silver-stained gel

The chains behind the UniProt entries cited, without tags or fusion partners.
UniProt Q12341: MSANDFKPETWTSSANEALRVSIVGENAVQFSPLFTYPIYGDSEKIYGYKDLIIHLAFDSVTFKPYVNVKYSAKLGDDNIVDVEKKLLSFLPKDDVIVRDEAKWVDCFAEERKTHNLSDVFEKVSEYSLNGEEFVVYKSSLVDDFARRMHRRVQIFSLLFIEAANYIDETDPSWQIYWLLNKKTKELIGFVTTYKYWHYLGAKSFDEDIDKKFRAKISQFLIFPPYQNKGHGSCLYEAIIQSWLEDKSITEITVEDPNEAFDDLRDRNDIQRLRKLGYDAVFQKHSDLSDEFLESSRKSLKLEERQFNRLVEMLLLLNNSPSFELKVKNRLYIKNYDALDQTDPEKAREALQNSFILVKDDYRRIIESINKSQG

B1: Hat2p (protein, UniProt P39984 1-401)
chain: MENQEKPLSVDEEYDLWKSNVPLMYDFVSETRLTWPSLTVQWLPTPVQELDGGFIKQELIIGTHTSGEEENYLKFAEINLPKEILSNEDPQEEAGEEYQSSLPAPRSNIRITAKYEHEEEITRARYMPQDPNIVATINGQGTVFLYSRSEGLQSTLKFHKDNGYALSFSTLVKGRLLSGSDDHTVALWEVGSGGDPTKPVRTWNDLHSDIINDNKWHNFNKDLFGTVSEDSLLKINDVRANNTTIDTVKCPQPFNTLAFSHHSSNLLAAAGMDSYVYLYDLRNMKEPLHHMSGHEDAVNNLEFSTHVDGVVVSSGSDNRLMMWDLKQIGAEQTPDDAEDGVPELIMVHAGHRSSVNDFDLNPQIPWLVASAEEENILQVWKCSHSLPIVGGPPKVNKDIIS
In the case of B1, the binding is reported as “binds”.
